Results published in paper PMC9800341, “THOC5 complexes with DDX5, DDX17, and CDK12 to regulate R loop structures and transcription elongation rate”.
These are yes or no findings as the source states them, for the method shown. For part of these data: Binding seen in cells or lysates may run through a third protein. Some results given as binding are weak or reduced against the parent protein; the word gives no strength. For part of these data: Where a sequence is shown, tags or fusion partners need not be part of it.

Amino acid sequences for entries named in this document (tags omitted).
UniProt Q92841: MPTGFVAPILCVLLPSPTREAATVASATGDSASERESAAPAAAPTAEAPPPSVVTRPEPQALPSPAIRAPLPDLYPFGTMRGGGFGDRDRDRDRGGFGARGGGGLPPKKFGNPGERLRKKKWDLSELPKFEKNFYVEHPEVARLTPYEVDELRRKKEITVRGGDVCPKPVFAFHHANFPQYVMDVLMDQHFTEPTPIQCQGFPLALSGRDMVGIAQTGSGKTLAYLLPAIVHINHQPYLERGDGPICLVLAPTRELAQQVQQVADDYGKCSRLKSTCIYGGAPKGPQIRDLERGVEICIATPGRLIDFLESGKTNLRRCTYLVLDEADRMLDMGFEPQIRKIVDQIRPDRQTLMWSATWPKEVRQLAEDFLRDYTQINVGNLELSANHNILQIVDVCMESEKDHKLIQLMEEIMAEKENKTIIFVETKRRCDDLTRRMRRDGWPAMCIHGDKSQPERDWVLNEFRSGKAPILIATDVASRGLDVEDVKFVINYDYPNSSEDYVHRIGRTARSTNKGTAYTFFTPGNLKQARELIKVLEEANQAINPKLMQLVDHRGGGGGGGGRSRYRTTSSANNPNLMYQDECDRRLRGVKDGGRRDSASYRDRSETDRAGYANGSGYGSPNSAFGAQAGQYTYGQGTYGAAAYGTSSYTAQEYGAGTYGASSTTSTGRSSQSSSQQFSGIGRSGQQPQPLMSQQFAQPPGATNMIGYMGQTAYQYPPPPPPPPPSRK
UniProt P17844: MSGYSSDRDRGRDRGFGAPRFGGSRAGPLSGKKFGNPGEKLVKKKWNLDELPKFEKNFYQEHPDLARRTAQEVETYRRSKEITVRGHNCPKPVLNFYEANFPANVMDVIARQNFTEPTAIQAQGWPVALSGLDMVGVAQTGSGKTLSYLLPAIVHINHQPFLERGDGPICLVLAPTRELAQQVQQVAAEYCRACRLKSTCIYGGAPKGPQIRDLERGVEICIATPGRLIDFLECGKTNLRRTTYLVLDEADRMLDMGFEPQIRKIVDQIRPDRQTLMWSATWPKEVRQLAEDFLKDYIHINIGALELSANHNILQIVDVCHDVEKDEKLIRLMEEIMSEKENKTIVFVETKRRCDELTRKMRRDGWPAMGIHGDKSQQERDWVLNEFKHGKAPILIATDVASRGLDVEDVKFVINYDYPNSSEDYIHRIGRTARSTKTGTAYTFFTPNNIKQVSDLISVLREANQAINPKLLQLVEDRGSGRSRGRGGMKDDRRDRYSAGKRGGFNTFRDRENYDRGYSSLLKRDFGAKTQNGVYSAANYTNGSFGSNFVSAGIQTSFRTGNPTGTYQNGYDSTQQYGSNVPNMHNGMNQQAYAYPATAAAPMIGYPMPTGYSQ

T1: THOC5 (chromatin-associated, endogenous) (human (endogenous in HEK293)) (UniProt Q13769)
T1 sequence: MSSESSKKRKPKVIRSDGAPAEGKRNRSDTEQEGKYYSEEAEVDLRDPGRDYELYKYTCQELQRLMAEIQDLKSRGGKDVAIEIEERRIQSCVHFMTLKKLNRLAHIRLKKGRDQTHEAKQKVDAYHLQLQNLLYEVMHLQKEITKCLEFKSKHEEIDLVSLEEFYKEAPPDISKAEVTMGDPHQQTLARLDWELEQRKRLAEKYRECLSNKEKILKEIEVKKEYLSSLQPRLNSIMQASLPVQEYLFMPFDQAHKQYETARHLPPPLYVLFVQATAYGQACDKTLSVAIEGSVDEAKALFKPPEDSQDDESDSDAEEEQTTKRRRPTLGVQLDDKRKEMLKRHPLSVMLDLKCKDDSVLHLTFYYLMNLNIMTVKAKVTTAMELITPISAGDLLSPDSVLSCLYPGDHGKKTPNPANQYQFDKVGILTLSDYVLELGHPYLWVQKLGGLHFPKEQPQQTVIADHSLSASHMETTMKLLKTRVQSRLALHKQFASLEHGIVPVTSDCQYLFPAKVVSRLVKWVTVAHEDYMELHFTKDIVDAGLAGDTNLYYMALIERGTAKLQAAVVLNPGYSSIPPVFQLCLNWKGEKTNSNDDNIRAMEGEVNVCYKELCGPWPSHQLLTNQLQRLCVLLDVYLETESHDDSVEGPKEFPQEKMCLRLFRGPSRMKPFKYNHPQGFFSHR

T2: recombinant GST-THOC6 (UniProt Q86W42)
T2 sequence: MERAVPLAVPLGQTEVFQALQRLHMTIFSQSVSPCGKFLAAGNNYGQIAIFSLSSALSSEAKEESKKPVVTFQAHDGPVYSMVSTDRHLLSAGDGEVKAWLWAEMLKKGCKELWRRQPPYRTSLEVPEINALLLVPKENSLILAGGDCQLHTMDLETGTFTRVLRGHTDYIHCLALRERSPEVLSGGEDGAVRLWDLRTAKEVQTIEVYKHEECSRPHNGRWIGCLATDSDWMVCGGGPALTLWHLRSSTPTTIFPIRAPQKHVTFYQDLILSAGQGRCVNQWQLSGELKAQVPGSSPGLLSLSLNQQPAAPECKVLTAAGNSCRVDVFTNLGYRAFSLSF


Tests used:
[1] = biological target: FLAG-tagged DDX17 (UniProt Q92841); assay: co-IP; FLAG-tagged DDX5 or DDX17 overexpressed in HEK293 cells, precipitated with FLAG M2 antibody from chromatin associated extracts; 150 mM NaCl, 0.5% NP-40, RNAse A; FLAG-, THOC5-, THOC6- and CDK12-specific immunoblot
[2] = biological target: FLAG-tagged DDX5 (UniProt P17844); assay: as above
[3] = biological target: T1, THOC5 (chromatin-associated, endogenous) (human (endogenous in HEK293)); assay: co-IP; endogenous THOC5 precipitated with mouse monoclonal anti-THOC5 from the chromatin-associated fraction of slow Pol II cells; 150 mM NaCl, 0.5% NP-40, RNAse A, 8 h at 4°C; immunoblot; THOC5-THOC6 also tested in CDK12-depleted cells
[4] = biological target: T2, recombinant GST-THOC6; assay: pull-down; GST pull-down: recombinant GST-THOC6 WT or mutant incubated with purified THOC5 for 2 h rotation at 4°C; GST and THOC5-specific immunoblot; both purified

Row | Binder | binding [1] | binding [2] | binding [3] | binding [4]
1 | THOC6 (endogenous) (protein, UniProt Q86W42 1-341) MERAVPLAVPLGQTEVFQALQRLHMTIFSQSVSPCGKFLAAGNNYGQIAIFSLSSALSSEAKEESKKPVVTFQAHDGPVYSMVSTDRHLLSAGDGEVKAWLWAEMLKKGCKELWRRQPPYRTSLEVPEINALLLVPKENSLILAGGDCQLHTMDLETGTFTRVLRGHTDYIHCLALRERSPEVLSGGEDGAVRLWDLRTAKEVQTIEVYKHEECSRPHNGRWIGCLATDSDWMVCGGGPALTLWHLRSSTPTTIFPIRAPQKHVTFYQDLILSAGQGRCVNQWQLSGELKAQVPGSSPGLLSLSLNQQPAAPECKVLTAAGNSCRVDVFTNLGYRAFSLSF | binds | binds | binds | 
2 | purified FLAG-tagged THOC5 (protein, UniProt Q13769 1-683) MSSESSKKRKPKVIRSDGAPAEGKRNRSDTEQEGKYYSEEAEVDLRDPGRDYELYKYTCQELQRLMAEIQDLKSRGGKDVAIEIEERRIQSCVHFMTLKKLNRLAHIRLKKGRDQTHEAKQKVDAYHLQLQNLLYEVMHLQKEITKCLEFKSKHEEIDLVSLEEFYKEAPPDISKAEVTMGDPHQQTLARLDWELEQRKRLAEKYRECLSNKEKILKEIEVKKEYLSSLQPRLNSIMQASLPVQEYLFMPFDQAHKQYETARHLPPPLYVLFVQATAYGQACDKTLSVAIEGSVDEAKALFKPPEDSQDDESDSDAEEEQTTKRRRPTLGVQLDDKRKEMLKRHPLSVMLDLKCKDDSVLHLTFYYLMNLNIMTVKAKVTTAMELITPISAGDLLSPDSVLSCLYPGDHGKKTPNPANQYQFDKVGILTLSDYVLELGHPYLWVQKLGGLHFPKEQPQQTVIADHSLSASHMETTMKLLKTRVQSRLALHKQFASLEHGIVPVTSDCQYLFPAKVVSRLVKWVTVAHEDYMELHFTKDIVDAGLAGDTNLYYMALIERGTAKLQAAVVLNPGYSSIPPVFQLCLNWKGEKTNSNDDNIRAMEGEVNVCYKELCGPWPSHQLLTNQLQRLCVLLDVYLETESHDDSVEGPKEFPQEKMCLRLFRGPSRMKPFKYNHPQGFFSHR |  |  |  | binds
3 | THOC5 (chromatin-associated, endogenous) (protein, UniProt Q13769 1-683) MSSESSKKRKPKVIRSDGAPAEGKRNRSDTEQEGKYYSEEAEVDLRDPGRDYELYKYTCQELQRLMAEIQDLKSRGGKDVAIEIEERRIQSCVHFMTLKKLNRLAHIRLKKGRDQTHEAKQKVDAYHLQLQNLLYEVMHLQKEITKCLEFKSKHEEIDLVSLEEFYKEAPPDISKAEVTMGDPHQQTLARLDWELEQRKRLAEKYRECLSNKEKILKEIEVKKEYLSSLQPRLNSIMQASLPVQEYLFMPFDQAHKQYETARHLPPPLYVLFVQATAYGQACDKTLSVAIEGSVDEAKALFKPPEDSQDDESDSDAEEEQTTKRRRPTLGVQLDDKRKEMLKRHPLSVMLDLKCKDDSVLHLTFYYLMNLNIMTVKAKVTTAMELITPISAGDLLSPDSVLSCLYPGDHGKKTPNPANQYQFDKVGILTLSDYVLELGHPYLWVQKLGGLHFPKEQPQQTVIADHSLSASHMETTMKLLKTRVQSRLALHKQFASLEHGIVPVTSDCQYLFPAKVVSRLVKWVTVAHEDYMELHFTKDIVDAGLAGDTNLYYMALIERGTAKLQAAVVLNPGYSSIPPVFQLCLNWKGEKTNSNDDNIRAMEGEVNVCYKELCGPWPSHQLLTNQLQRLCVLLDVYLETESHDDSVEGPKEFPQEKMCLRLFRGPSRMKPFKYNHPQGFFSHR | binds | binds |  | 
